Laboratory results published in the supplement of paper PMC12823440, “Inhibitors supercharge kinase turnover through native proteolytic circuits” (Nature, 2025).
Some of the results follow. Hit calls seldom repeat between salt and free forms of one compound.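 Kinases were expressed as nanoluciferase fusions in K562 cells and luminescence was read every 4 h between 2 and 18 h as percent of control, DMSO set to 100% and a positive control to 0%. A time point counts as decreased when the signal drops significantly (2 sigma). The hit call is the authors' own, does not follow from the count of time points alone, and its rule is not shown.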

Sequences of proteins named here, by UniProt entry; tags and fusion partners are left off. A change or cut given only in a name is not applied to a line headed by its entry.
UniProt Q15208: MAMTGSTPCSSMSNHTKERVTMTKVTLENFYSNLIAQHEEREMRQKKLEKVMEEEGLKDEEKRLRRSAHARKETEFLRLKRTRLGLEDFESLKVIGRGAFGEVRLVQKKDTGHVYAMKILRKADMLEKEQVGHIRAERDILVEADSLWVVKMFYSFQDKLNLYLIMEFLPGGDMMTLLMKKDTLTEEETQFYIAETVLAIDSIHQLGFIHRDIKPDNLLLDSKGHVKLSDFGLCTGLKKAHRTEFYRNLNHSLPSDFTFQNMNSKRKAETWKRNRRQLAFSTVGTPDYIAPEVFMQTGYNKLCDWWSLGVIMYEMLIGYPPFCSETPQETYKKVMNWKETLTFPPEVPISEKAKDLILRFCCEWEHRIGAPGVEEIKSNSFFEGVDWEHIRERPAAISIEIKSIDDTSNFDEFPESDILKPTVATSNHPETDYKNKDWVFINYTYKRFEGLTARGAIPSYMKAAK
UniProt P07947, whole entry, looked up: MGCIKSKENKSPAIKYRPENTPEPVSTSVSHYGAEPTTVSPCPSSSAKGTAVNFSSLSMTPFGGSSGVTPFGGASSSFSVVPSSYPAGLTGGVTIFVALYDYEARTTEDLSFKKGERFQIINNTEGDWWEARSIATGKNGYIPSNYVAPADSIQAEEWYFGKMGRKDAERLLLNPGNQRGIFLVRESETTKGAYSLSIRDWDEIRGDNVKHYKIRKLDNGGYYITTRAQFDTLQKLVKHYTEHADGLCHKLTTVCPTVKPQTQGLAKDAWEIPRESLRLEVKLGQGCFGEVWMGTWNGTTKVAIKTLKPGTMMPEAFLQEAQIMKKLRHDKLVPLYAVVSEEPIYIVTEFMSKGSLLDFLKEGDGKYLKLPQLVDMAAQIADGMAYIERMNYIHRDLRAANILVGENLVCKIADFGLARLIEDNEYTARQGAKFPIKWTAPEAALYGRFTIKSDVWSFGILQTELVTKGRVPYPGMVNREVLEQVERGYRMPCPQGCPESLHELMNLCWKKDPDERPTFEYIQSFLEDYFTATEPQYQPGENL
UniProt Q9UM73: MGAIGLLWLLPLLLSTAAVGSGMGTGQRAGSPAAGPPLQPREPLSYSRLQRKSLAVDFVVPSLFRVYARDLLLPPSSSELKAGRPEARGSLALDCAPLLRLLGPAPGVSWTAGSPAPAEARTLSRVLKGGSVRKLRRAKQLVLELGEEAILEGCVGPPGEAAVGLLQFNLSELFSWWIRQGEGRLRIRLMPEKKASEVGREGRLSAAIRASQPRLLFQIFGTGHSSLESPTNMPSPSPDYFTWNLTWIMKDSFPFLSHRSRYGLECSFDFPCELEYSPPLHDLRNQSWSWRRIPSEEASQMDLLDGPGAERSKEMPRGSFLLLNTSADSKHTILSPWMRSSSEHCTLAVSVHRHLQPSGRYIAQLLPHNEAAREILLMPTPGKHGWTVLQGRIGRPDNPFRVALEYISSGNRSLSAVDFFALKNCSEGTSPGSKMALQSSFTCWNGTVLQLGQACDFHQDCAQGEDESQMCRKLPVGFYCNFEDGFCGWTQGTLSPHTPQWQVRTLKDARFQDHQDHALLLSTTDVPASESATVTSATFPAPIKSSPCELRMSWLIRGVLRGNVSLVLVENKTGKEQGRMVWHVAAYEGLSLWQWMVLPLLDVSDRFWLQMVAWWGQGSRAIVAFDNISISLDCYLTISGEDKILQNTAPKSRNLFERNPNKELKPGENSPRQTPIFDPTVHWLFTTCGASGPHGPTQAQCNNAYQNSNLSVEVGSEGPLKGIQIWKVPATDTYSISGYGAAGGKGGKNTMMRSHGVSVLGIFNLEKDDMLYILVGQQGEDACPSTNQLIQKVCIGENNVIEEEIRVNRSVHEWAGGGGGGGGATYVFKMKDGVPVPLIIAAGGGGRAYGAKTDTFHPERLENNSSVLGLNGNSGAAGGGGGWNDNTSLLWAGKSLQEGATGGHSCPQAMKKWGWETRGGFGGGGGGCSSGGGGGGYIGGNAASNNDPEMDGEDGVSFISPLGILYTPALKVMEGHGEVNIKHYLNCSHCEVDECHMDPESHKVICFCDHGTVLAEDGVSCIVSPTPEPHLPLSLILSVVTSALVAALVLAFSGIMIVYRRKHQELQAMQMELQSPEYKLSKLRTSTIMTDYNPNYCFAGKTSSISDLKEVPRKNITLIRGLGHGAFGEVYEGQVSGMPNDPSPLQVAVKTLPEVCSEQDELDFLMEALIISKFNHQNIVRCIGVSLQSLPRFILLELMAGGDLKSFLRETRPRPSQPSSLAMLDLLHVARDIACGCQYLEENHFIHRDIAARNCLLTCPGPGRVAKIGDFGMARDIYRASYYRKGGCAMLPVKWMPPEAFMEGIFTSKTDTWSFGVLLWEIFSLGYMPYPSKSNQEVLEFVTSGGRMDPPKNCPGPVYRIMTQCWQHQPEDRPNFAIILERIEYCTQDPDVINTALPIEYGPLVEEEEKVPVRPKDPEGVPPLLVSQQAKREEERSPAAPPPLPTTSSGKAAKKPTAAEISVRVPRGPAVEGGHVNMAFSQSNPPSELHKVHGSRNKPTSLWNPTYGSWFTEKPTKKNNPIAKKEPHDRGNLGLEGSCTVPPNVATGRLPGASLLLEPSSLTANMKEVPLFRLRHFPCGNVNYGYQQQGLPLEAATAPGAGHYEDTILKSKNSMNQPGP
UniProt P10398: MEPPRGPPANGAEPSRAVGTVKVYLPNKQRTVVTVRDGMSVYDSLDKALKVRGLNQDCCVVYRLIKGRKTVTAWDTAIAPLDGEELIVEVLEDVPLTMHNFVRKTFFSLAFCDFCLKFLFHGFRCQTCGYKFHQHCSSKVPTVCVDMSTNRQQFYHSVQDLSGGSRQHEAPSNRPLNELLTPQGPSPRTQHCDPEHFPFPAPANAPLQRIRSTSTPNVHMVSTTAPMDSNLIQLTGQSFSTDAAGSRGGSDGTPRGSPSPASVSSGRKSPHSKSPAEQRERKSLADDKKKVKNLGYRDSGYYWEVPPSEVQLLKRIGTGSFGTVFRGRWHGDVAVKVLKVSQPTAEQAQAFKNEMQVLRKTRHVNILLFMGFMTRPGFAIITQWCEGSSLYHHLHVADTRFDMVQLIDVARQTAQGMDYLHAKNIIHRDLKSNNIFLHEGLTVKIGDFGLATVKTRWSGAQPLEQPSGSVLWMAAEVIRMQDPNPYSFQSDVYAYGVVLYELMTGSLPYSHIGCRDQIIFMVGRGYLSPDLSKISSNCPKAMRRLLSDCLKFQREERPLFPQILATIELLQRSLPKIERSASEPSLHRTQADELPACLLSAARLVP
UniProt Q96GD4, whole entry: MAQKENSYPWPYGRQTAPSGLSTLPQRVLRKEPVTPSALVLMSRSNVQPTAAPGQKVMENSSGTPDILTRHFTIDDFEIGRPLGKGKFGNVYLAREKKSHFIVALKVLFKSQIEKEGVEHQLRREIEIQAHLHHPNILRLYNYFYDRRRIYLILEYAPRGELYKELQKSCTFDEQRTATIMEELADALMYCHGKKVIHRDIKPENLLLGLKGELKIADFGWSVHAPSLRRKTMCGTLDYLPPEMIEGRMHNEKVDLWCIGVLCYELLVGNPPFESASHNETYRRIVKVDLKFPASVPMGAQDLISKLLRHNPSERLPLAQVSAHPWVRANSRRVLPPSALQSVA
UniProt Q9UQB9: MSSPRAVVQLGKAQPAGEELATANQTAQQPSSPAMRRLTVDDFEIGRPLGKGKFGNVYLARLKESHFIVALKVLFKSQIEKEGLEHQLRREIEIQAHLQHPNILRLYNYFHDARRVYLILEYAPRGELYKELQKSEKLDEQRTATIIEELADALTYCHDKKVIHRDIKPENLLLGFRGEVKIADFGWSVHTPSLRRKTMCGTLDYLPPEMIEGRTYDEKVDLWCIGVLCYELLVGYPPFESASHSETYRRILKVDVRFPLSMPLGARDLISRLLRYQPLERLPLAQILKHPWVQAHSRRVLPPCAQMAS
UniProt P51451: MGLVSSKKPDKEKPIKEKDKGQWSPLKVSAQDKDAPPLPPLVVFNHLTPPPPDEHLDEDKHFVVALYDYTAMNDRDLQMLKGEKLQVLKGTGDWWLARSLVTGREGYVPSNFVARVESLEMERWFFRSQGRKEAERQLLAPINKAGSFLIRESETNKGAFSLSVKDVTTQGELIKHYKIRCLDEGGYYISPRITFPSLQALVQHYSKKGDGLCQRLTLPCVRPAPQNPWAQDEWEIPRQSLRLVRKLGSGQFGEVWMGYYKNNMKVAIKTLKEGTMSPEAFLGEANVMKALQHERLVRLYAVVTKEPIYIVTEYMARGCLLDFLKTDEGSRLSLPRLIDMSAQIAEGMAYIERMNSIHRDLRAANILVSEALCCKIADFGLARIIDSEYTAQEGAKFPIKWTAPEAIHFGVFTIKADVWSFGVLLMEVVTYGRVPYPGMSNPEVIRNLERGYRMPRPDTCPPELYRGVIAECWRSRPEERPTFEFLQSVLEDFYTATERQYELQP
UniProt P51813: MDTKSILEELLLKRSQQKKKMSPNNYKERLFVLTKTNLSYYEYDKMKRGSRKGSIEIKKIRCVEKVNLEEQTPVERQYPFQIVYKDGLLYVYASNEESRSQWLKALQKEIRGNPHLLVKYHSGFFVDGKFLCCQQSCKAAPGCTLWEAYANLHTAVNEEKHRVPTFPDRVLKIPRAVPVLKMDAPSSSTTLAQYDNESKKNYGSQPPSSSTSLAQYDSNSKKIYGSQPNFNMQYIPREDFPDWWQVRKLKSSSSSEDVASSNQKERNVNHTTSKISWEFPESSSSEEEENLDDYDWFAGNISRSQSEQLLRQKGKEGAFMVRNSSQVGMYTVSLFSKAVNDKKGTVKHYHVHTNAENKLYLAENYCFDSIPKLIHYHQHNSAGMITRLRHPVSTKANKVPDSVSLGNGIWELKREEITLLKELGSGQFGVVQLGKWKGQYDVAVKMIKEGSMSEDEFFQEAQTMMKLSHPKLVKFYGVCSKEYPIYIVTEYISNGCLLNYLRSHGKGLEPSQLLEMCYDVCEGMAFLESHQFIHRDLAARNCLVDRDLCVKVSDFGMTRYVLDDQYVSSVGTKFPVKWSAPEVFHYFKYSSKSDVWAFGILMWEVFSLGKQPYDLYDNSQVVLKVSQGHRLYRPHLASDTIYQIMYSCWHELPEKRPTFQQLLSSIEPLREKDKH
UniProt P15056, whole entry, looked up: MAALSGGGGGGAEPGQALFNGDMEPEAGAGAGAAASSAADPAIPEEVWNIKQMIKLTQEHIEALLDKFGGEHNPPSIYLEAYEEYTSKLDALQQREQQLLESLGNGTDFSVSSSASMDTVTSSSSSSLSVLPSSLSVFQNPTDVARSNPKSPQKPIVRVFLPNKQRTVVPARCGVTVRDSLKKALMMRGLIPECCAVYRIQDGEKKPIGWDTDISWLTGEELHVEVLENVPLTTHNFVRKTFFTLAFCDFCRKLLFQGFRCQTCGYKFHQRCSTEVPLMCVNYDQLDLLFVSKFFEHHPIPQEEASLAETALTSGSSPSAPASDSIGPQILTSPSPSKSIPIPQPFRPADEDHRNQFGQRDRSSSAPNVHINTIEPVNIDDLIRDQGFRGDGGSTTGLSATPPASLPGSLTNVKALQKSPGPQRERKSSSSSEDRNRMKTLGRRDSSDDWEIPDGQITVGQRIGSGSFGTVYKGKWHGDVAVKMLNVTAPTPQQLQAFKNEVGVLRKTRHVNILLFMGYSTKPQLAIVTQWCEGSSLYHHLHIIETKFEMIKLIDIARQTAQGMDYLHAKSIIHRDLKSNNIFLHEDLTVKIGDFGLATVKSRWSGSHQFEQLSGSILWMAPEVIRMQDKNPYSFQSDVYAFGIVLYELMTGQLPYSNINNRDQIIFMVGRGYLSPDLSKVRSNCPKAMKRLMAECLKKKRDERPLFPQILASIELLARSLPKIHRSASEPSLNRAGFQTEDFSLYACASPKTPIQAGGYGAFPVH
UniProt Q06187: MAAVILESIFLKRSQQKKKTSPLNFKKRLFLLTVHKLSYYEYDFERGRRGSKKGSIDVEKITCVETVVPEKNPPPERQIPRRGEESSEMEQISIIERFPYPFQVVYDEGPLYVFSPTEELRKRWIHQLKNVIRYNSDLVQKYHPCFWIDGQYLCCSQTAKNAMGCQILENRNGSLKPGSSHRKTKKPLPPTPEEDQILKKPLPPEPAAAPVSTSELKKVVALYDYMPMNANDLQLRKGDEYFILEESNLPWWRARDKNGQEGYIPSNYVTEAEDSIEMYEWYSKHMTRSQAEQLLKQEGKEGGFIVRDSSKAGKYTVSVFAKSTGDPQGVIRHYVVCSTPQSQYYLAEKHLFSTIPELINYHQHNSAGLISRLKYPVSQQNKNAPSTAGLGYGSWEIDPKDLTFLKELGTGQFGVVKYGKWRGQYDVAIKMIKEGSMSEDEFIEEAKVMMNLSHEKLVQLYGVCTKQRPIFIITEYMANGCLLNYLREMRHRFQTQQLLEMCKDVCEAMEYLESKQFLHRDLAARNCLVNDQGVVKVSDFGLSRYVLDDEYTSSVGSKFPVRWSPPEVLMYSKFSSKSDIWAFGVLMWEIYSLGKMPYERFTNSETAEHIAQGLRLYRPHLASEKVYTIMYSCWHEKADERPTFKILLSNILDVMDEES

What was measured:
Settings in all cases: K562; 2-18 h
[1] = target: STK38 (UniProt Q15208); experiment: kinase-Nluc reporter destabilization hit call (1 = scored as downregulated) (binary); higher = compound decreases kinase abundance
[2] = target: SYK (UniProt P43405); experiment: as above
[3] = target: TEC (UniProt P42680); experiment: as above
[4] = target: TYK2 (UniProt P29597); experiment: as above
[5] = target: ULK3 (UniProt Q6PHR2); experiment: as above
[6] = target: YES1 (UniProt P07947); experiment: as above
[7] = target: ZAK (UniProt Q9NYL2); experiment: as above
[8] = target: ZAP70 (UniProt P43403); experiment: as above
[9] = target: ABL1 (UniProt P00519); experiment: number of time points (of 5) at which kinase-Nluc abundance scored as decreased, DMSO-normalised (count); higher = more persistent destabilization
[10] = target: AKT1 (UniProt P31749); experiment: as above
[11] = target: ALK (UniProt Q9UM73); experiment: as above
[12] = target: ARAF (UniProt P10398); experiment: as above
[13] = target: AURKA (UniProt O14965); experiment: as above
[14] = target: AURKB (UniProt Q96GD4); experiment: as above
[15] = target: AURKC (UniProt Q9UQB9); experiment: as above
[16] = target: BLK (UniProt P51451); experiment: as above
[17] = target: BMX (UniProt P51813); experiment: as above
[18] = target: BRAF (UniProt P15056); experiment: as above
[19] = tested on: BRAF_V600E; experiment: as above
[20] = target: BTK (UniProt Q06187); experiment: as above

Structure (SMILES) | kinase-Nluc reporter destabilization hit call [1] | kinase-Nluc reporter destabilization hit call [2] | kinase-Nluc reporter destabilization hit call [3] | kinase-Nluc reporter destabilization hit call [4] | kinase-Nluc reporter destabilization hit call [5] | kinase-Nluc reporter destabilization hit call [6] | kinase-Nluc reporter destabilization hit call [7] | kinase-Nluc reporter destabilization hit call [8] | number of time points [9] | number of time points [10] | number of time points [11] | number of time points [12] | number of time points [13] | number of time points [14] | number of time points [15] | number of time points [16] | number of time points [17] | number of time points [18] | number of time points [19] | number of time points [20]
CN(CC(=O)N(Cc1ccc(C2CCCCC2)cc1)c1ccc(C(=O)O)c(O)c1)S(=O)(=O)c1c(F)c(F)c(F)c(F)c1F (2.5 µM) | inactive: 0 | inactive: 0 | inactive: 0 | inactive: 0 | inactive: 0 | inactive: 0 | inactive: 0 | inactive: 0 | 0 | 0 | 0 | 0 | 0 | 0 | 0 | 5 | 0 | 0 | 0 | 0
C=CC(=O)N1CCC(Oc2cc3c(Nc4ccc(Cl)c(Cl)c4F)ncnc3cc2OC)CC1 [Poziotinib] (2.5 µM) | inactive: 0 | inactive: 0 | inactive: 0 | inactive: 0 | inactive: 0 | inactive: 0 | inactive: 0 | inactive: 0 | 0 | 0 | 0 | 0 | 0 | 0 | 0 | 0 | 0 | 0 | 0 | 0
Nc1[nH]c(=O)nc2c1ncn2[C@@H]1O[C@H](CO)[C@@H](O)[C@H]1O [Crotonoside] (10 µM) | inactive: 0 | inactive: 0 | inactive: 0 | inactive: 0 | inactive: 0 | inactive: 0 | inactive: 0 | inactive: 0 | 0 | 0 | 0 | 0 | 0 | 0 | 0 | 0 | 0 | 0 | 0 | 0
C=CC(=O)Nc1cccc(-n2c(=O)cc(C)c3cnc(Nc4ccc(OCCN(C)C)cc4OC)nc32)c1 (10 µM) | inactive: 0 | inactive: 0 | inactive: 0 | inactive: 0 | inactive: 0 | inactive: 0 | inactive: 0 | inactive: 0 | 0 | 0 | 0 | 0 | 0 | 0 | 0 | 0 | 0 | 0 | 0 | 0
Cn1cc(-c2ccc3nnc(C(F)(F)c4ccc5ncccc5c4)n3n2)cn1 (10 µM) | inactive: 0 | inactive: 0 | inactive: 0 | inactive: 0 | inactive: 0 | inactive: 0 | inactive: 0 | inactive: 0 | 0 | 0 | 0 | 0 | 0 | 0 | 0 | 0 | 0 | 0 | 0 | 0
CC(C)(C)Cn1c(N)nc2ccc(-c3[nH]c(C(C)(C)C)nc3-c3ccc(F)cc3)nc21 [Ralimetinib dimesylate] (2.5 µM) | inactive: 0 | inactive: 0 | inactive: 0 | inactive: 0 | inactive: 0 | inactive: 0 | inactive: 0 | inactive: 0 | 0 | 0 | 0 | 0 | 0 | 0 | 0 | 0 | 0 | 0 | 0 | 0
O=C(c1ccc(Nc2nccc(-c3cc4ccccc4s3)n2)cc1)N1CCC(N2CCCC2)CC1 (2.5 µM) | inactive: 0 | inactive: 0 | inactive: 0 | inactive: 0 | inactive: 0 | inactive: 0 | inactive: 0 | inactive: 0 | 0 | 0 | 0 | 0 | 0 | 0 | 0 | 0 | 0 | 0 | 0 | 0
CC(C)(C)C(=O)N1N=CC[C@H]1c1ccccc1 (10 µM) | inactive: 0 | inactive: 0 | inactive: 0 | inactive: 0 | inactive: 0 | inactive: 0 | inactive: 0 | inactive: 0 | 0 | 0 | 0 | 0 | 0 | 0 | 0 | 0 | 0 | 0 | 0 | 0

Only number of time points [12], number of time points [15] and number of time points [14] (two entries from above):
Structure (SMILES)	number of time points [12]	number of time points [15]	number of time points [14]
Nc1[nH]c(=O)nc2c1ncn2[C@@H]1O[C@H](CO)[C@@H](O)[C@H]1O [Crotonoside] (10 µM)	0	0	0
C=CC(=O)Nc1cccc(-n2c(=O)cc(C)c3cnc(Nc4ccc(OCCN(C)C)cc4OC)nc32)c1 (10 µM)	0	0	0
